Laboratory results reported in patent US20120122680A1, “MESOIONIC PESTICIDES” (E.I. Du Pont de Nemours and Company, priority 2009, published 2012).
Some entries share one result that the patent states for a list of compounds.

Columns and labels:
[1] = test system: diamondback moth (Plutella xylostella); assay: Test A: control of diamondback moth on radish plant, foliar spray; assay type: in vivo; settings: sprayed at 50 ppm; radish plant pre-infested with neonate larvae; assessed after 6 days
[2] = test system: fall armyworm (Spodoptera frugiperda); assay: Test B: control of fall armyworm on maize plant, foliar spray; assay type: in vivo; settings: sprayed at 50 ppm; maize plant pre-infested with 1-day-old larvae

For CC1CC=Cc2n1c(=O)c(-c1cc(Cl)cc(C(F)(F)F)c1)c([O-])[n+]2Cc1cnc(Cl)s1 (centres unmarked) [Compound 84], the “control efficacy: feeding damage (very good to excellent: 40% or less feeding damage and/or 100% mortality)” value [1] was ≤ 40% and the “control efficacy: feeding damage (very good to excellent: 40% or less feeding damage and/or 100% mortality)” value [2] was ≤ 40%.
